This note sets out measurements from PubChem BioAssay AID685 (PCMD, 2007).

The list shows a part of the results.

This assay in a line: S. cerevisiae growth inhibition, turbidity – wild-type and eIF2Bepsilon R284H mutant, A595, cytotoxicity control for eIF2B function restoration project, primary screen (AID 685).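 Further: 0% = untreated cell controls and 100% = YPD media blanks without cells.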 The settings on record: 16 h, stronger effect = higher value, screened at 25 µM (by protocol). The method in brief: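 system = S. cerevisiae wild-type or eIF2Bepsilon-R284H mutant strain | buffer or medium = YPD medium | dosing = one dose, 25 µM compound, 0.2% DMSO | schedule = 16 h at 30 °C | measured by = A595 turbidity | evaluation = growth inhibition (%) versus cell controls and blanks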
`N#CC1(Nc2ccccc2)CCN(CCc2ccccc2)CC1`: the growth inhibition is -14.8%.

For the compound `CCC(CO)(C(=O)OC1CN2CCC1CC2)c1ccccc1` (centres undefined), the growth inhibition is 15.2%. Under `c1ccc(CN2CCC(Nc3ccccc3)CC2)cc1` stands 6.06%; under `N/C(=N\O)c1c(N)no[n+]1[O-]`, -7.41%.
